Measurements: PubChem BioAssay AID493014 (National Center for Advancing Translational Sciences (NCATS), 2011)
The other results are listed elsewhere or left out. Shown are side measurements of this screen, not its main read-out; they come without a call. Compounds called inactive in the main read-out are mostly missing here. Potencies come from curve fits of mixed quality, noted in brackets.

Assay: qHTS Assay to Find Inhibitors of Chronic Active B-Cell Receptor Signaling
Details: ABC-DLBCL IkBa-CBG/CBR reporter, luminescence ratio (green luciferase fused to IkBa over red control in TMD8 lymphoma cells), 4 h
Outline: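 TMD8 ABC-DLBCL cells carrying doxycycline-inducible green luciferase fused to IkappaBalpha plus unfused red luciferase were exposed to compounds (up to 46 uM) for 4 hrs at 37C. Activity came from the overlap-corrected green/red luminescence ratio.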

[1] = measured here: CBR red luminescence, cell number
[2] = measured here: IkBa-CBG green luminescence

SMILES | AC50 [1] | AC50 [2]
COc1ccc(N2CCN(C(=O)NC34CC5CC(CC(C5)C3)C4)CC2)cc1 | 20.6 µM [rising, partial curve, poor fit] | 
Cc1c(NC(=O)c2cn3ccccc3n2)cccc1-n1cnnn1 | 2.24 µM [rising, partial curve] | 
Nc1ccc2c(c1)OC1(CCCC1)O2 | 0.0891 µM [rising, full curve, poor fit] | 
CCC(C)N(C(=O)COc1ccccc1C#N)C1CCS(=O)(=O)C1 (stereo unspecified) | 18.4 µM [falling, single point] | 
COc1ccc([C@H]2CC(=O)C=C(c3ccc(C)c(F)c3)C2)cc1 | 29.1 µM [rising, single point] | 
COc1ccc2cc(-c3cc(C(=O)O)c4ccccc4n3)ccc2c1 | 0.1 µM [falling, full curve, poor fit] | 
CCOC(=O)CSc1nc2nc(C)cc(C)n2n1 | 0.731 µM [rising, full curve, poor fit] | 
CC(C)c1ccc(NC(=O)C(=O)c2cn(CC(=O)N3CCCCC3)c3ccccc23)cc1 | 6.51 µM [falling, single point] | 
Cn1c(=O)[nH]c(=O)c2c1nc(N1CCOCC1)n2CC(O)COc1ccc2ccccc2c1 (stereo unspecified) | 0.731 µM [rising, full curve, poor fit] | 
COc1ccc(C)cc1COC(=O)c1[nH]c(C)c(C(C)=O)c1C | 7.08 µM [falling, partial curve] | 
CCC(=O)OC1(C)C(=O)C=C2C=C(c3ccsc3)OC=C2C1=O (stereo unspecified) | 4.47 µM [rising, single point] | 
CCOC(=O)c1cc(C)n(-c2ccc(Cl)cc2)c1C | 3.55 µM [rising, full curve, poor fit] | 
COc1ccc(C(C)=O)cc1CC(=O)Nc1cccc(S(=O)(=O)N2CCOCC2)c1 | 16.4 µM [rising, partial curve, poor fit] | 
COc1ccc(C2=NN(C(=O)CSc3ncccn3)C(c3cccc(OC)c3OC)C2)cc1 (stereo unspecified) | 2 µM [rising, full curve, poor fit] | 
O=C(CCCOC(=O)c1ccc(O)cc1O)c1ccccc1 | 0.0461 µM [rising, full curve, poor fit] | 
COCc1ccc(-c2c(-c3ccsc3)sc3ccccc23)cc1 | 6.51 µM [rising, partial curve] | 
O=C(O)c1cccc(S(=O)(=O)N2CCSCC2)c1 | 5.62 µM [rising, single point] | 
Cc1ccc(S(=O)(=O)NCC2CCCO2)cc1[N+](=O)[O-] (stereo unspecified) | 1.84 µM [rising, partial curve, poor fit] | 
CCCOc1ccc(C2C(=O)N(C3CCC(C)CC3)CC(=O)N2Cc2cccc(OC)c2)cc1OC (stereo unspecified) | 5.62 µM [rising, single point] | 
COc1ccc(N(CC(=O)N2CCN(c3ccccc3)CC2)S(=O)(=O)c2ccc(C)cc2)cc1 | 35.5 µM [falling, single point] | 
CCOC(=O)c1[nH]c2ccccc2c1NC(=S)Nc1cccc(C)c1 | 29.1 µM [falling, single point] | 
C=C(C)CNC(=S)N/N=C/c1ccco1 |  | 28.2 µM [falling, single point]

SMILES | AC50 [1] | AC50 [2]
COc1ccc(CNc2ccc3c(c2)ncn3-c2ccccc2OC)cc1 | 7.08 µM [falling, partial curve, poor fit] | 
CCCOC(=O)c1ccc(NC(=O)c2cc(=O)[nH]c3ccccc23)cc1 | 2.82 µM [rising, partial curve, poor fit] | 
CCOc1ccc(S(=O)(=O)NCC2CCCO2)c2ccccc12 (stereo unspecified) | 14.1 µM [rising, single point] | 
O=C(N/N=C/C=C/c1ccccc1)c1cccs1 | 1.41 µM [falling, full curve] | 
NC(=O)c1ccnc2c(O)cccc12 | 32.6 µM [rising, single point] | 
CCN(CC)S(=O)(=O)c1ccc(Cl)c(NC(=O)COC(=O)c2cccn2C)c1 | 14.1 µM [falling, single point] | 
COc1cc(NS(=O)(=O)c2ccc(NC(=S)NC(=O)/C=C/c3ccc(F)cc3)cc2)ncn1 | 0.631 µM [falling, full curve, poor fit] | 
CCC/C(=N/NC(=O)c1csc(C)c1C)c1ccc(Cl)s1 | 0.326 µM [falling, full curve, poor fit] | 
Nc1nnc(-c2cc3ccccc3oc2=O)s1 | 9.2 µM [falling, partial curve] | 
COc1cc2c(cc1OC)C(C(=O)Nc1cc(C)c(OC)c(C)c1)CC(=O)N2 (stereo unspecified) | 22.4 µM [rising, single point] | 
CCOC(=O)c1c(C)oc2ccc(OCC(=O)C(C)(C)C)cc12 | 1.3 µM [falling, full curve] | 
C[C@@H]1CN([C@H](C)CO)C(=O)Cc2cc(NC(=O)Cn3cnnn3)ccc2O[C@@H]1CN(C)Cc1ccc(Cl)c(Cl)c1 | 25.9 µM [falling, single point] | 
COc1ccccc1OCC(=O)NCc1n[nH]c(=O)c2ccccc12 | 20.6 µM [falling, single point] | 
O=c1/c(=C\c2ccc(O)cc2)sc2nc(-c3ccccc3)c(-c3ccccc3)n12 | 35.5 µM [falling, single point] | 
O=C(C1CCCCC1)N1CCc2[nH]c3ccc(F)cc3c2C1 | 35.5 µM [rising, partial curve, poor fit] | 
CN(c1ccc(C(=O)Nc2ccc(F)cc2F)cc1)S(=O)(=O)c1ccccc1 | 8.91 µM [falling, partial curve] | 
CC1(NC(=O)N2CCCCC2)CCS(=O)(=O)C1 (stereo unspecified) | 1.58 µM [rising, full curve, poor fit] | 
Cc1cccc(-n2c(CCCN3C(=O)c4ccccc4C3=O)nc3ccccc3c2=O)n1 | 14.6 µM [rising, single point] | 
Cc1oc(-c2cccs2)nc1CN1CCC(CO)(CCOc2ccccc2)CC1 | 20 µM [rising, single point] | 
C=CCN(C(=O)Cn1nc(C)n2c(cc3cc(C)ccc32)c1=O)c1ccccc1 |  | 12.6 µM [rising, partial curve, poor fit]
CCOc1ccc(Br)cc1S(=O)(=O)Nc1cccc(S(=O)(=O)N(C)c2ccccc2)c1 | 18.4 µM [falling, single point] | 
O=C(NC1CCCCCC1)C(=S)NC1CCCCC1 | 11.2 µM [rising, partial curve, poor fit] | 

SMILES | AC50 [1] | AC50 [2]
CC1CCc2c(sc(NC(=O)CSc3ncn[nH]3)c2C#N)C1 (stereo unspecified) | 12.6 µM [falling, partial curve] | 
COc1cc(C2N3CC4(C)CN2CC(C)(C3)C4)ccc1O (stereo unspecified) | 1.03 µM [falling, full curve, poor fit] | 
O=C(CNC(=O)c1ccc2ccccc2c1)NC1CCCCC1 | 23.1 µM [falling, single point] | 
COc1cccc(-c2nnc(SCc3cccnc3)o2)c1 | 15.8 µM [falling, partial curve, poor fit] | 
CCC(CC)c1nnc(NC(=O)[C@@H](NC(=O)c2cccc(C)c2)C(C)C)s1 | 0.146 µM [rising, full curve, poor fit] | 
Cc1cc2nc[nH]c2cc1[N+](=O)[O-] | 35.5 µM [falling, partial curve, poor fit] | 
COc1ccc(-c2cc(-c3ccco3)[nH]c(=O)c2C#N)cc1OC |  | 25.1 µM [rising, partial curve, poor fit]
CCC(=O)Nc1cc2nn(-c3ccc(OC)cc3)nc2cc1C | 8.91 µM [rising, partial curve] | 
Cc1noc(C)c1CSc1nc2sc(C)c(C)c2c(=O)n1-c1ccccc1 | 0.517 µM [rising, full curve, poor fit] | 
COc1ccccc1/C=C/C(=O)NCCc1ccccn1 | 1 µM [falling, full curve] | 
CC(C)c1ccc(C2=NN(c3ccccc3)C(=O)CC2)cc1 | 9.2 µM [rising, partial curve] | 
Cc1ccc(-c2cc(C(=O)N/N=C\c3cnn(C)c3C)c3ccccc3n2)cc1C | 0.146 µM [rising, full curve, poor fit] | 
CCOC(=O)N1CCN(C(=O)CS(=O)(=O)c2cn(Cc3cccc(F)c3)c3ccccc23)CC1 | 16.4 µM [falling, single point] | 25.9 µM [rising, partial curve, poor fit]
CC1CC2(CCCCC2)Nc2c1ccc1ccccc21 (stereo unspecified) | 16.4 µM [rising, partial curve] | 
Cc1cccc(OCCCC(=O)NCC(=O)Nc2cccc(C)c2C)c1 | 7.08 µM [falling, partial curve, poor fit] | 
COc1ccc(NC(=O)CSc2nc3sc(C)cc3c(=O)n2C)c(OC)c1 | 3.98 µM [falling, single point] | 
O=C(Cc1cccc2ccccc12)N/N=C/c1ccc(Sc2cccc3cccnc23)o1 |  | 20.6 µM [falling, partial curve, poor fit]
Cc1cccc2cc(CNCc3ccccc3)c(Cl)nc12 | 20 µM [rising, partial curve, poor fit] | 
O=C(CCc1nnc(CCCc2ccccc2)o1)NCCN1CCOC1=O | 17.8 µM [rising, partial curve, poor fit] | 
Cc1ccc(NC(=O)C2C3/C=C\CCCCC32)cc1 (stereo unspecified) | 2.06 µM [rising, partial curve] | 
c1ccc(C2=Nn3c(nnc3-c3ccncc3)SC2)cc1 | 0.631 µM [falling, partial curve, poor fit] | 

An excerpt of these results, tab-delimited:
SMILES	AC50 [1]	AC50 [2]
CCC(CC)c1nnc(NC(=O)[C@@H](NC(=O)c2cccc(C)c2)C(C)C)s1	0.146 µM [rising, full curve, poor fit]	
COc1ccc(-c2cc(-c3ccco3)[nH]c(=O)c2C#N)cc1OC		25.1 µM [rising, partial curve, poor fit]
COc1ccc(NC(=O)CSc2nc3sc(C)cc3c(=O)n2C)c(OC)c1	3.98 µM [falling, single point]	
